Reference: PubChem BioAssay AID1487 (National Center for Advancing Translational Sciences (NCATS), 2009)
Hit rate of the full screen: of about 200,000 compounds, about 25 (0.01%) were called active. This list was built around the results that the source calls inconclusive (neither active nor inactive); the mix of calls is not that of the screen. Calls come from the whole dose curve; as a rule, active = well fitted inhibition curve with a large enough effect in the signal ratio, with a control signal flat (not every such curve was filed as active); inconclusive = small, poorly fitted or top-dose-only effect, or effect the other way, or a change in a side signal; inactive = flat fitted curve, though single readings scatter; the % refers to the signal ratio. A potency beside an inconclusive call is a rough fit, not a confirmed value.
% is set by controls: 0 for no effect and ±100 for the full control effect; potency is the fitted concentration of half-maximal effect.

Assay: qHTS Assay for Modulators of Lamin A Splicing
Conditions: HeLa LMNA splicing GFP/RFP minigene ratio, 48 h; ratio change, negative = inhibition: at 46.1 µM (top of the series) unless noted
Procedure, shortened: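 Read-out is the ratio of GFP to DsRed2 object intensity, acquired by 488 nm laser-scanning cytometry on HeLa lamin A-EGFP minigene reporter cells. Compound incubation 48 hrs at 37 °C in Opti-MEM with 2% FBS; DMSO 0.5% final.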
In the case of Fc1ccc2[nH]c3c(NCCN4CCOCC4)ncnc3c2c1, the ratio change, negative = inhibition is reported as inconclusive: -31.4%.
For CCc1cc2c3c(c(=O)oc2cc1OC)CCCC3, the ratio change, negative = inhibition was inconclusive: 8.15%.
In the case of CC(C)(C)Nc1c(-c2cccs2)nc2ccccn12, the ratio change, negative = inhibition is reported as inconclusive: 5.38% [at 46 µM].
In the case of Cc1c(NC(=O)CN2C(=O)NC(C)(c3ccc4c(c3)OCCO4)C2=O)c(=O)n(-c2ccccc2)n1C (centres undefined), the ratio change, negative = inhibition is reported as “inactive”.
For COc1cccc(C(=O)Nc2ncc3c(n2)CC(C)(C)CC3=O)c1, the ratio change, negative = inhibition was inconclusive: -1.74%.
In the case of Cc1ccc(/C(N)=N/OC(=O)Cc2cccc3ccccc23)cc1, the Potency is reported as inconclusive: 35.5 µM [falling, single point].
With CC(=O)NCCc1cc2ccc(C)cc2[nH]c1=O the ratio change, negative = inhibition was “inactive”.
With CC1(C)CC(=O)C(C=NCCc2ccc(O)cc2)=C(O)C1 the ratio change, negative = inhibition was “inactive”.
In the case of Fc1ccccc1Nc1ncnc2c1nc1n2CCCCC1, the ratio change, negative = inhibition is reported as inconclusive: -13.7% [at 46 µM].
In the case of O=C(NCc1ccco1)c1ccc(S(=O)(=O)N2CCOCC2)cc1, the ratio change, negative = inhibition is reported as “inactive”.
In the case of CCOCC(=O)Nc1cc(C(=O)Nc2ccc(F)cc2)ccc1Cl, the ratio change, negative = inhibition is reported as inconclusive: -2.19% [at 46 µM].
With CCCOc1cc(C)c(S(=O)(=O)NC2CC(C)(C)NC(C)(C)C2)cc1C the ratio change, negative = inhibition was inconclusive: -5.79%.
With CC(NC(=O)c1cccs1)C(c1cccs1)N1CCN(c2ccccc2)CC1 (centres undefined) the ratio change, negative = inhibition was inconclusive: -33.8%.
With Fc1ccc(-n2ncc3c(N4CCN(c5ccccc5F)CC4)ncnc32)cc1 the ratio change, negative = inhibition was inconclusive: -9.74% [at 46 µM].
For CCOC(=O)C1CCCN(S(=O)(=O)c2ccc(Br)c(OC)c2)C1 (centres undefined), the ratio change, negative = inhibition was “inactive”.
In the case of CNCCC(Oc1ccccc1C)c1ccccc1 (centres undefined), the ratio change, negative = inhibition is reported as inconclusive: -11.7%.
For CCC(C)c1ccc(NC(=S)NCc2ccccn2)cc1 (centres undefined), the Potency was inconclusive: 3.16 µM [rising, single point].
For CC(C)(C)c1ccc(C(=O)N2CCN(Cc3cc(=O)n4nc(-c5ccccc5F)sc4n3)CC2)cc1, the ratio change, negative = inhibition was “inactive”.
In the case of O=C(CSc1ccccn1)Nc1ccc2c(c1)C(=O)c1ccccc1C2=O, the ratio change, negative = inhibition is reported as “inactive”.
For Cc1nn(CC2CC2)c(=O)n1-c1ccccc1, the Potency was inconclusive: 0.0035 µM [activator, full curve, poor fit].
For CCOC(=O)c1cnc(SCC(=O)Nc2cccc(OC)c2)nc1N, the Potency was inconclusive: 35.5 µM [falling, single point].
In the case of Cc1onc(-c2ccccc2Cl)c1C(=O)NC(=S)Nc1ccccc1C(N)=O, the ratio change, negative = inhibition is reported as inconclusive: 6.09%.
For Cc1ccc(NC(=O)c2ccc3c(c2)OCCO3)cc1S(=O)(=O)Nc1cccc(Cl)c1, the Potency was inconclusive: 11.2 µM [inhibitor, partial curve, poor fit].
With Cc1ccc(C)c(N2CCN(C(=O)c3nn(C)c4c3CS(=O)(=O)c3ccccc3-4)CC2)c1 the ratio change, negative = inhibition was inconclusive: -30.6% [at 46 µM].
With CCN(CC)c1ccc(C=Nc2cc(C)ccc2C)c(O)c1 the ratio change, negative = inhibition was “inactive”.
With Cc1ccc(NC(=O)CN(C)C(=O)CSc2nc(C)cs2)cc1 the ratio change, negative = inhibition was “inactive”.
For COc1ccccc1/C=C/C(=O)NCCC1=CCCCC1, the ratio change, negative = inhibition was inconclusive: 6.89% [at 46 µM].
With COc1ccc(O)c(C(=O)c2cnn(C(=O)c3cc(C)oc3C)c2)c1 the ratio change, negative = inhibition was “inactive”.
With O=C(Nc1ccccc1Br)C1CCN(C(=O)Cc2ccccc2)CC1 the ratio change, negative = inhibition was inconclusive: 6.27%.
In the case of N#C/C(=C\c1cc(Cl)ccc1O)C(=O)NC1CCCCC1, the ratio change, negative = inhibition is reported as “inactive”.
With Cc1nc2ccc(NC(=O)CCS(=O)(=O)c3ccc(Cl)cc3)cc2s1 the Potency was inconclusive: 12.6 µM [fluorescent, partial curve].
For O=C1c2ccc3c4c(ccc(c24)C(=O)N1c1ccc2ccccc2c1)CC3, the Potency was inconclusive: 3.16 µM [inhibitor, partial curve].
With COc1ccc(-c2cn3c(n2)sc2cc(C(=O)N4CCCCC4)ccc23)cc1 the ratio change, negative = inhibition was “inactive”.
For COc1ccc(N2CC(NC(=O)Cc3cccs3)CC2=O)cc1OC (centres undefined), the ratio change, negative = inhibition was “inactive”.
In the case of O=C(NCc1ccc(F)cc1)c1ccc(N2CCc3ccccc32)c([N+](=O)[O-])c1, the Potency is reported as inconclusive: 22.4 µM [fluorescent, partial curve].
With COc1ccc(C(CNC(=O)c2ccc(S(=O)(=O)N3CCOCC3)cc2)N2CCCCC2)cc1 (centres undefined) the ratio change, negative = inhibition was inconclusive: 12%.
For CCc1ccc(NC(=O)CSc2nc3ccccc3c(=O)n2CCC(=O)NC2CCCCC2)cc1, the ratio change, negative = inhibition was inconclusive: 4.8% [at 46 µM].
For CCCCNC(=O)Cc1ccc(C)cc1, the ratio change, negative = inhibition was “inactive”.
With O=C(NC(=O)N1CCOCC1)c1ccccc1 the ratio change, negative = inhibition was inconclusive: -18.9%.
With Brc1cccc(CNCCCN2CCOCC2)c1 the ratio change, negative = inhibition was inconclusive: -11.3% [at 46 µM].
In the case of N#Cc1cc2c(nc1SCC(=O)N1CCCCC1)CCCCC2, the ratio change, negative = inhibition is reported as inconclusive: 18.4%.
In the case of Cc1ccccc1OCC(=O)NC(=S)Nc1ccc(Br)c(C)n1, the ratio change, negative = inhibition is reported as inconclusive: 12.8%.
In the case of C=CCc1ccccc1OCC(O)CNC(C)C (centres undefined), the ratio change, negative = inhibition is reported as inconclusive: 1.37%.
In the case of CCc1ccc(N(C(=O)c2csnn2)C(C(=O)NC(C)(C)C)c2ccccn2)cc1 (centres undefined), the Potency is reported as inconclusive: 1.12 µM [activator, full curve, poor fit].
In the case of COCCNC(=S)N1CCN(S(C)(=O)=O)CC1, the ratio change, negative = inhibition is reported as inconclusive: 32.9% [at 46 µM].
With Cc1n[nH]c(C)c1N=Nc1cc(Cl)ccc1Cl the ratio change, negative = inhibition was inconclusive: 9.98%.
With CCc1ccc(CCC(=O)Nc2ncc(Cc3ccccc3Cl)s2)o1 the ratio change, negative = inhibition was inconclusive: -27.2%.
With O=C(COc1ccccc1)Nc1ccc2nc(SCC(=O)N3CCCC3)sc2c1 the ratio change, negative = inhibition was inconclusive: -21% [at 46 µM].
For CCCCOc1ccc(CC(=O)NO)cc1, the ratio change, negative = inhibition was inconclusive: 3.81%.
In the case of CCOC(=O)CNc1nc(C(C)(C)C)nc2c1nnn2Cc1ccccc1Cl, the Potency is reported as inconclusive: 35.5 µM [fluorescent, single point].
In the case of Cc1csc(SCC(=O)Nc2cc(S(=O)(=O)N3CCCC3)ccc2Cl)n1, the ratio change, negative = inhibition is reported as “inactive”.
With COC(=O)c1nc(N)sc1C the ratio change, negative = inhibition was inconclusive: -13.9% [at 9.22 µM].
In the case of Cc1ccc(CNC(=O)c2cccc(OCc3c(C)noc3C)c2)cc1, the ratio change, negative = inhibition is reported as inconclusive: -19.5%.
With CC(C)c1ccc(S(=O)(=O)c2cnc(SCC(=O)Nc3ccc(F)cc3F)nc2N)cc1 the ratio change, negative = inhibition was “inactive”.
